Results deposited as PubChem BioAssay AID1259267 (Sanger Institute, 2017)
Purpose: 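Essential and drug-synergistic knock-downs in GP5D bowel cancer cells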 (primary screen). Cells: human GP5D colorectal cancer cells. Reagent: siRNA pool against human genes. Challenge: anchor drugs at low dose: BYL719 1 µM, cetuximab 5 µg/ml, trametinib 10 nM, or DMSO vehicle. Detection: 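Viability against non-targeting pool, replicate mean: robust z-score for knock-down alone, fraction with DMSO, synergy with BYL719 1 µM, cetuximab 5 µg/ml, trametinib 10 nM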. Direction: robust z-score, knock-down alone and viability with DMSO: higher = more viable cells; synergy score with trametinib and synergy score with BYL719 and synergy score with cetuximab: higher = stronger synthetic lethal synergy with drug. Hit rule: 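a robust z-score below -3 for the knock-down by itself makes a gene active, i.e. essential alone; synergy scores are ignored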. Meaning of the calls: active = essential alone; inactive = not essential.
The deposit covers 794 reagents; this is an unselected part. 9 of all reagents (1.1%) were called active. 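Viability capped at 1; calls reflect loss of viability from knock-down alone, not synergy with drugs.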 No sequences are given here. Not stated in the record: the amount of reagent, the time to read-out.

The first 2 records, ahead of the listing:
gene	robust z-score, knock-down alone	viability with DMSO (fraction of control)	synergy score with trametinib	synergy score with BYL719	synergy score with cetuximab	Outcome
KCNH8 (GeneID 131096)	0.817	1	0.312	0.213	0.271	inactive
NLK (GeneID 51701)	-0.0796	0.81	0.328	-0.0226	0.0487	inactive

The list itself, repeating the preview:
gene	robust z-score, knock-down alone	viability with DMSO (fraction of control)	synergy score with trametinib	synergy score with BYL719	synergy score with cetuximab	Outcome
KCNH8 (GeneID 131096)	0.817	1	0.312	0.213	0.271	inactive
NLK (GeneID 51701)	-0.0796	0.81	0.328	-0.0226	0.0487	inactive
SRPK1 (GeneID 6732)	0.817	1	-0.0645	-0.152	-0.0954	inactive
IRAK1 (GeneID 3654)	-1.03	0.608	0.178	-0.333	0.104	inactive
AURKA (GeneID 6790)	-2.78	0.237	0.00871	-0.0517	0.00682	inactive
EFNA3 (GeneID 1944)	-0.961	0.623	-0.16	-0.259	-0.145	inactive
VRK2 (GeneID 7444)	0.817	1	0.153	-0.0271	-0.0167	inactive
PLK2 (GeneID 10769)	0.817	1	-0.18	-0.0569	-0.129	inactive
NEK8 (GeneID 284086)	0.0982	0.848	0.122	0.061	-0.000921	inactive
DGKD (GeneID 8527)	-0.315	0.76	0.00882	-0.0978	-0.306	inactive
TSSK2 (GeneID 23617)	-0.0341	0.82	0.159	-0.0321	-0.146	inactive
CLK3 (GeneID 1198)	0.463	0.925	0.309	0.0609	0.215	inactive
FER (GeneID 2241)	0.817	1	-0.197	-0.361	-0.142	inactive
SPEG (GeneID 10290)	0.577	0.949	0.0388	-0.0975	-0.0392	inactive
TNIK (GeneID 23043)	0.332	0.897	0.186	-0.0554	0.0801	inactive
TYK2 (GeneID 7297)	0.646	0.964	-0.0736	-0.0186	-0.0982	inactive
ROR2 (GeneID 4920)	0.817	1	0.0477	-0.149	-0.057	inactive
ARAF (GeneID 369)	0.817	1	0.141	-0.083	-0.077	inactive
NADK (GeneID 65220)	0.302	0.891	-0.285	-0.162	-0.115	inactive
FGFR2 (GeneID 2263)	-1.9	0.425	0.0402	-0.231	-0.12	inactive
PAK1 (GeneID 5058)	-0.592	0.701	0.00577	-0.19	0.0601	inactive
FGR (GeneID 2268)	-1.48	0.513	0.076	-0.332	-0.0871	inactive
DAPK2 (GeneID 23604)	-0.332	0.756	-0.393	-0.291	-0.351	inactive
PIP4K2A (GeneID 5305)	0.817	1	-0.197	-0.168	-0.142	inactive
PIK3CG (GeneID 5294)	-1.02	0.61	0.114	-0.032	-0.0102	inactive
LIMK2 (GeneID 3985)	0.817	1	-0.0385	-0.29	-0.142	inactive
HIPK4 (GeneID 147746)	0.817	1	-0.133	-0.334	-0.142	inactive
ALPK2 (GeneID 115701)	0.817	1	-0.0394	-0.00514	0.0531	inactive
PIK3R1 (GeneID 5295)	0.369	0.905	0.068	-0.238	-0.0646	inactive
TAOK1 (GeneID 57551)	0.817	1	-0.0413	-0.181	-0.141	inactive
MAP2K6 (GeneID 5608)	0.817	1	-0.197	-0.235	-0.142	inactive
MPP3 (GeneID 4356)	-2.2	0.36	0.0876	-0.0474	-0.0887	inactive
UCKL1 (GeneID 54963)	0.817	1	-0.0329	-0.221	-0.117	inactive
MYLK2 (GeneID 85366)	-1.76	0.454	0.103	0.0552	0.0441	inactive
CKMT1B (GeneID 1159)	0.817	1	0.134	-0.109	-0.105	inactive
CDK11A (GeneID 728642)	-2.78	0.238	0.0296	-0.203	0.0333	inactive
CHKA (GeneID 1119)	0.267	0.884	-0.0442	-0.0569	0.123	inactive
TSSK6 (GeneID 83983)	0.519	0.937	-0.0376	-0.0557	-0.00561	inactive
MAP3K19 (GeneID 80122)	0.798	0.996	-0.0314	-0.0145	0.114	inactive
GRK1 (GeneID 6011)	0.237	0.877	-0.296	-0.273	-0.185	inactive
TP53BP1 (GeneID 7158)	-2.03	0.396	-0.557	-0.362	-0.415	inactive
STK38L (GeneID 23012)	-1.63	0.482	-0.0225	-0.126	-0.142	inactive
FGFRL1 (GeneID 53834)	-1.98	0.408	0.136	-0.125	0.0778	inactive
PRKY (GeneID 5616)	0.817	1	0.0175	-0.195	-0.142	inactive
CLK1 (GeneID 1195)	-0.701	0.678	-0.455	-0.384	-0.318	inactive
KIT (GeneID 3815)	0.121	0.852	0.218	-0.183	0.163	inactive
MET (GeneID 4233)	0.817	1	0.0644	0.0928	0.00288	inactive
SGK2 (GeneID 10110)	-0.103	0.805	-0.0156	-0.18	-0.112	inactive
IRAK4 (GeneID 51135)	-0.725	0.673	-0.35	-0.326	-0.422	inactive
MOS (GeneID 4342)	0.817	1	-0.197	-0.134	-0.111	inactive
